# ± gives the standard deviation of the averaged measurements. Some of the results follow.
# Amino acid sequences for entries named in this document (tags omitted). A change or cut given only in a name is not applied to a line headed by its entry.
# UniProt Q12788: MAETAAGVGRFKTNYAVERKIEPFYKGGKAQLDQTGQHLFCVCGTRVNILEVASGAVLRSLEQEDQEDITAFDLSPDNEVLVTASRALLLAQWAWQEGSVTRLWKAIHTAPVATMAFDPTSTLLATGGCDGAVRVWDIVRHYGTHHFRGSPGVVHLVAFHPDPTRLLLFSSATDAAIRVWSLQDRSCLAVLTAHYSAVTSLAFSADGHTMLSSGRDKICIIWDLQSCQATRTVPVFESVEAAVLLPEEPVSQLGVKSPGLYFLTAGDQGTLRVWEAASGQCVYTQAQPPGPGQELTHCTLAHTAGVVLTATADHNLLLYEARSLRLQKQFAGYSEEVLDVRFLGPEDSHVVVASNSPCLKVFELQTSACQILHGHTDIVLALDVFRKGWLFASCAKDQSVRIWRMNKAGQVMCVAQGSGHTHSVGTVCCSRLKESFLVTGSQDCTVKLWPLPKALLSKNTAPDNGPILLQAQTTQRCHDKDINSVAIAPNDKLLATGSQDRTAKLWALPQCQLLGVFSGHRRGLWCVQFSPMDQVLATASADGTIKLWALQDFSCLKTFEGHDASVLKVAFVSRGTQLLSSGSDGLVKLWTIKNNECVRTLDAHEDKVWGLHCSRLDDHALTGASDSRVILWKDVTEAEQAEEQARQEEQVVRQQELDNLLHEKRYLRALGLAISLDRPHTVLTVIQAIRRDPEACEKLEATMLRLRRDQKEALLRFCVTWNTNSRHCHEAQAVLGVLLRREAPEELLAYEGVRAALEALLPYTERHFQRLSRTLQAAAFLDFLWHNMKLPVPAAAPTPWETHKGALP
# UniProt Q14161: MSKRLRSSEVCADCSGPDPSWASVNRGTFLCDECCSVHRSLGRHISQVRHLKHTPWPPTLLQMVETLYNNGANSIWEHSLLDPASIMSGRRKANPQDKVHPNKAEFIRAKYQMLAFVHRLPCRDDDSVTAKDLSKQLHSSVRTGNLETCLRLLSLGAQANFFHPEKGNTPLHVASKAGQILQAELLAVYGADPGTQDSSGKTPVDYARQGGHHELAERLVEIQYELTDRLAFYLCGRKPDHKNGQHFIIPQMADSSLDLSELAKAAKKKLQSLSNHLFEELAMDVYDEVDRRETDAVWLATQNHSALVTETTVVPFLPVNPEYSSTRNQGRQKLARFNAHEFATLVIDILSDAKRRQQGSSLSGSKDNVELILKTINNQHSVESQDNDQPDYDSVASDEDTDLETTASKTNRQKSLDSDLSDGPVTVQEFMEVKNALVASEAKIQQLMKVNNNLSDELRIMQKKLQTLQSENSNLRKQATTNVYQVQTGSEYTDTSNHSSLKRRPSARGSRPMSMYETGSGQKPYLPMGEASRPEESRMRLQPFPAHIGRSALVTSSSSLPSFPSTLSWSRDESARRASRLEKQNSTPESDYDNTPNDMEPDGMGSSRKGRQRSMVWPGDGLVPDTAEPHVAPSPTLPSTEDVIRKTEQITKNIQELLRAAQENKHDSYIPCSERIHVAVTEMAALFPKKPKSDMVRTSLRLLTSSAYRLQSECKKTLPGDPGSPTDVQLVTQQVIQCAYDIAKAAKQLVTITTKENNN
# UniProt Q12933: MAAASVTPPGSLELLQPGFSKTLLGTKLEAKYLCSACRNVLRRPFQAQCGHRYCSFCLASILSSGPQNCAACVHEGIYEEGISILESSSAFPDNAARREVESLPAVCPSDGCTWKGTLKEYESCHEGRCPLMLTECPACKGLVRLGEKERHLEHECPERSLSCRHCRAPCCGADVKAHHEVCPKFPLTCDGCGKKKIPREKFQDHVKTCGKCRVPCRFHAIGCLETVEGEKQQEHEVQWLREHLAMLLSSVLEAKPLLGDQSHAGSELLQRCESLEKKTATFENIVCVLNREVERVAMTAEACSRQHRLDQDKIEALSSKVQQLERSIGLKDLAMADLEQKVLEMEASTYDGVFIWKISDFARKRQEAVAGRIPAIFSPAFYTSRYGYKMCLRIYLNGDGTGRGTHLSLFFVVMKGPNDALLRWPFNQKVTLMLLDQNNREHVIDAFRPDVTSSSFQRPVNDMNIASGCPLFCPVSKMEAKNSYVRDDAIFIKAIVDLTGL
# UniProt Q14571, whole entry: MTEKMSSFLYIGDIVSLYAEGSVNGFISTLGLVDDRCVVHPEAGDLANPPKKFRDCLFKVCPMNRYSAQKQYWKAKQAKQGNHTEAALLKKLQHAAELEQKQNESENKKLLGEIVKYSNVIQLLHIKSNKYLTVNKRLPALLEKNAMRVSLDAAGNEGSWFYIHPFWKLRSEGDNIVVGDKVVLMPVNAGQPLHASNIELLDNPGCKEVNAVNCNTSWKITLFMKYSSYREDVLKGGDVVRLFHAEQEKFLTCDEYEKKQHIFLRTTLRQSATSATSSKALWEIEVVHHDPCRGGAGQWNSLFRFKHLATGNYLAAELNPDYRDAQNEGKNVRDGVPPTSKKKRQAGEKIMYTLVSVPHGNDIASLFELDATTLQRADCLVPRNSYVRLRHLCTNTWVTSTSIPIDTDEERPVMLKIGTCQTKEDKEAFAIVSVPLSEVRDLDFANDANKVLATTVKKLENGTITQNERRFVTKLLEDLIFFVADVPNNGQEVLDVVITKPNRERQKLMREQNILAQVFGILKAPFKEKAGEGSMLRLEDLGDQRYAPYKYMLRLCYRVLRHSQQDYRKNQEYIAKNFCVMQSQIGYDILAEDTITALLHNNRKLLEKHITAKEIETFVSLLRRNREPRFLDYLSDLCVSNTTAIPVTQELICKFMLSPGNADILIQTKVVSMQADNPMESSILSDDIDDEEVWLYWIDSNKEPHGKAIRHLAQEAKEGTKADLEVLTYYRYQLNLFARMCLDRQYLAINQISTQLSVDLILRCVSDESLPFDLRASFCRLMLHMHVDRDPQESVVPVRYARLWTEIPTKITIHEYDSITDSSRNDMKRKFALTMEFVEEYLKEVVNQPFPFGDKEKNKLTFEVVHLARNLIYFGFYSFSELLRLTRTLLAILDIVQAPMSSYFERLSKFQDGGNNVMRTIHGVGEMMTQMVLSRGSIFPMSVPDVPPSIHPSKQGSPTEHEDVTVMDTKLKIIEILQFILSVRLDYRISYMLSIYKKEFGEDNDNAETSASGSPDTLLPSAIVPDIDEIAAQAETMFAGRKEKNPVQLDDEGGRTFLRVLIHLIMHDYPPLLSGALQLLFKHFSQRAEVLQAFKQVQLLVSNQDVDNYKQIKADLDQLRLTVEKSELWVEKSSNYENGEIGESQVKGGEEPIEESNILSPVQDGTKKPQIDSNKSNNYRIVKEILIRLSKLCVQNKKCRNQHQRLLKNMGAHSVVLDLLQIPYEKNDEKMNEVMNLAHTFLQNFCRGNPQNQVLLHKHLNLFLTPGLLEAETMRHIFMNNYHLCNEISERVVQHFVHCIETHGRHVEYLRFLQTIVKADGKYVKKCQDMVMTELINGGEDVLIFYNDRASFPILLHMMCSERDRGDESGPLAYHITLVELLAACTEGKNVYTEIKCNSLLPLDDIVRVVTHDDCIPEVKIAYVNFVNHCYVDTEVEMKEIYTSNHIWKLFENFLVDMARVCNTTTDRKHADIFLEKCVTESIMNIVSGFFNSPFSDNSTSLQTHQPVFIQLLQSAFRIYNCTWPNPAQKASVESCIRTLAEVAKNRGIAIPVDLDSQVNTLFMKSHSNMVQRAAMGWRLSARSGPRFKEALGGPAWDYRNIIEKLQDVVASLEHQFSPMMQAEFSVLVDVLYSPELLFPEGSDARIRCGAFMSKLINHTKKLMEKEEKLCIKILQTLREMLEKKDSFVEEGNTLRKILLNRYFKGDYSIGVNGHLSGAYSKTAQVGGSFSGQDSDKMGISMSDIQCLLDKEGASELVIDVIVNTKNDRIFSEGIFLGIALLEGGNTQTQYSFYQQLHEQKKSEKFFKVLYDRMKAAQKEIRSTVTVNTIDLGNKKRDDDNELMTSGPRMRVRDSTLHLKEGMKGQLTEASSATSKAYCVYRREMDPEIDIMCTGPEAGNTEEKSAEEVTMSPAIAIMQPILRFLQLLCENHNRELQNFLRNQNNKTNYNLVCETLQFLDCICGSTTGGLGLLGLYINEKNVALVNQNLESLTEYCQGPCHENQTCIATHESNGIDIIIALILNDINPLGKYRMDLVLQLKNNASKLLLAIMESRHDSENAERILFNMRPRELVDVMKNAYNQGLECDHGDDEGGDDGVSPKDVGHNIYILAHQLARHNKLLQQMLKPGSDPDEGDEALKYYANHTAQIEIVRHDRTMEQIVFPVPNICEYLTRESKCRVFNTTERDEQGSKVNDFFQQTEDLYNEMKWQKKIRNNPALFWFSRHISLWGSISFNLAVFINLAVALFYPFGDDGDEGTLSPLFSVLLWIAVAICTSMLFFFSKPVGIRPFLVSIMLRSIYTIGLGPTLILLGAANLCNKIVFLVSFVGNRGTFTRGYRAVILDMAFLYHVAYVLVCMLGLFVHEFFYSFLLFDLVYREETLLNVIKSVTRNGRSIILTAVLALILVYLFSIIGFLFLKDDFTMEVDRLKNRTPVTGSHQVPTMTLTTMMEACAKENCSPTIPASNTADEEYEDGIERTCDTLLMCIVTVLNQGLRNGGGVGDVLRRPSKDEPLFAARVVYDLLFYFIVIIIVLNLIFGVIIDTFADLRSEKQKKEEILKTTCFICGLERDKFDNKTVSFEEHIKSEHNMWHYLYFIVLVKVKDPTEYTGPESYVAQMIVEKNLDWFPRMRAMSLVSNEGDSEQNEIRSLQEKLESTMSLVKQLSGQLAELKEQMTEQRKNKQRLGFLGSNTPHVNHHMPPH
# UniProt Q13686: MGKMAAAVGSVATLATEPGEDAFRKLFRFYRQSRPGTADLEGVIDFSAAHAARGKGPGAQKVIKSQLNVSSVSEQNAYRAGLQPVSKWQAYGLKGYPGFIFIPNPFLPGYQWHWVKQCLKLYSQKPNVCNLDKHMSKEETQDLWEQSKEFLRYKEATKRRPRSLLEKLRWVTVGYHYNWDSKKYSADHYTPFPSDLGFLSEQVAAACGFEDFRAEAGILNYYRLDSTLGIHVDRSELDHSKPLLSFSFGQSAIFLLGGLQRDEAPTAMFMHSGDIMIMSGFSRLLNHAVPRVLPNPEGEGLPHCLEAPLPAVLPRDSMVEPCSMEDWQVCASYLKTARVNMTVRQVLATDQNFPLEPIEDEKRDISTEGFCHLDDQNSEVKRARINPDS
# UniProt Q14683: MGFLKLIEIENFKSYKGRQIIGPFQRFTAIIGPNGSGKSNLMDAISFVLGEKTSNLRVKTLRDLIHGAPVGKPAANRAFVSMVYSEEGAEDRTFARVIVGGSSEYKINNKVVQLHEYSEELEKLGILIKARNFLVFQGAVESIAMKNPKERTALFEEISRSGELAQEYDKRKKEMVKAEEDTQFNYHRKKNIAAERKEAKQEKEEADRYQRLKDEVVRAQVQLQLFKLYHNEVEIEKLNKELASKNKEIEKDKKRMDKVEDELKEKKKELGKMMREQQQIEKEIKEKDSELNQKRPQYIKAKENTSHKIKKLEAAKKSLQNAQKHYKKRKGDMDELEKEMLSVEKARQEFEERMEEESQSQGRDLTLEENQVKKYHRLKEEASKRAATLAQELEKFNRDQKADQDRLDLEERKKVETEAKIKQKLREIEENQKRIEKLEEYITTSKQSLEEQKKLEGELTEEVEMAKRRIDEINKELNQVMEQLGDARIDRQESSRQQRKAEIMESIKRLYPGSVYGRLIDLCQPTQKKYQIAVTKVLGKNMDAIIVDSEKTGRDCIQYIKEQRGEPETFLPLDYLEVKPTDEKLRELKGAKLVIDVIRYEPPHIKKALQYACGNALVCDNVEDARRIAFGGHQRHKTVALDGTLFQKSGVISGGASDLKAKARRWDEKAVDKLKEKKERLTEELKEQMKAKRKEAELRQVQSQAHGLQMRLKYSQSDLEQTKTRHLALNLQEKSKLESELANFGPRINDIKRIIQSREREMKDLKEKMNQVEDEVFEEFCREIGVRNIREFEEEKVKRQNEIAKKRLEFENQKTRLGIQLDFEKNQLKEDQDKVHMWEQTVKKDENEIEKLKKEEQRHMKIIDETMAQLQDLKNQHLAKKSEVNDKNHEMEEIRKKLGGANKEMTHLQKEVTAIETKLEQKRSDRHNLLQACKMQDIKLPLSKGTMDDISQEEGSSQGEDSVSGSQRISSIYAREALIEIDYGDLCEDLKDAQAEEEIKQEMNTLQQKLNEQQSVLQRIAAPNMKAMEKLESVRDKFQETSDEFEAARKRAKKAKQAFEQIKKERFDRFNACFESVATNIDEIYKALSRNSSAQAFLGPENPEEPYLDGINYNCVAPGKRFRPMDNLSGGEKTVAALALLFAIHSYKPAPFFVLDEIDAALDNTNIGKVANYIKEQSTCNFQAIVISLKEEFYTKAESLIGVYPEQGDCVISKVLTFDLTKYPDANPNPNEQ
# Compound: Nc1nc2c(ncn2[C@@H]2O[C@H](COP(=O)(O)OP(=O)(O)OP(=O)(O)O)[C@@H](O)[C@H]2O)c(=O)[nH]1 [guanosine triphosphate]
# Assay: NP40-soluble protein abundance relative to vehicle (solubility fold change) (ratio); higher = more soluble protein in presence of GTP
# How it was run: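 Data come from three independent experiments in which Dounce-homogenised Jurkat crude lysate was treated at eight concentrations from 0.1 to 10 mM. Treatment ran 10 min at room temperature and then 3 min at 37 °C, after which 0.8% NP40 and benzonase were added for 60 min at 4 °C before ultracentrifugation. The supernatant underwent TMT labelling and LC-MS/MS, and vsn-normalised intensities were expressed as fold change against the detergent-processed vehicle in each replicate.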
Target,NP40-soluble protein abundance (concentration: 0.1mM),NP40-soluble protein abundance (concentration: 0.5mM),NP40-soluble protein abundance (concentration: 1mM),NP40-soluble protein abundance (concentration: 2mM),NP40-soluble protein abundance (concentration: 4mM),NP40-soluble protein abundance (concentration: 6mM),NP40-soluble protein abundance (concentration: 8mM),NP40-soluble protein abundance (concentration: 10mM)
UniProt Q13164,1.09 ± 0.083,1.02 ± 0.065,1.05 ± 0.063,1.02 ± 0.13,1.01 ± 0.092,1.04 ± 0.15,1.01 ± 0.067,1 ± 0.077
UniProt Q13472 and related entries,1.08 ± 0.043,1.05 ± 0.061,1 ± 0.061,1.05 ± 0.038,1.05 ± 0.074,1.02 ± 0.11,1.02 ± 0.051,0.98 ± 0.045
UniProt Q02086 and related entries,1.11 ± 0.23,1.12 ± 0.21,1.17 ± 0.085,1.09 ± 0.21,1.07 ± 0.3,1.14 ± 0.21,1.2 ± 0.088,1.3 ± 0.25
TBL3 (UniProt Q12788),1.18 ± 0.1,1.16 ± 0.14,1.11 ± 0.058,1.36 ± 0.15,1.59 ± 0.19,1.65 ± 0.17,1.72 ± 0.21,1.7 ± 0.26
UniProt Q14558-2,1.11 ± 0.07,1.22 ± 0.17,1.2 ± 0.13,1.29 ± 0.2,1.23 ± 0.21,1.28 ± 0.18,1.27 ± 0.23,1.22 ± 0.19
UniProt Q14161 and related entries,0.956 ± 0.075,0.962 ± 0.041,0.98 ± 0.056,0.972 ± 0.066,0.976 ± 0.068,0.993 ± 0.05,1 ± 0.083,0.996 ± 0.096
UniProt Q13085 and related entries,1.09 ± 0.08,1.09 ± 0.11,1.03 ± 0.088,1.07 ± 0.14,1.05 ± 0.11,1.04 ± 0.097,0.975 ± 0.072,0.956 ± 0.056
UniProt Q12933 and related entries,0.987 ± 0.025,1.03 ± 0.079,0.994 ± 0.045,0.982 ± 0.064,0.989 ± 0.066,1.02 ± 0.055,0.983 ± 0.06,0.996 ± 0.068
UniProt Q14103-3|D6RF44 and related entries,0.913 ± 0.097,0.946 ± 0.094,0.943 ± 0.085,0.894 ± 0.1,0.903 ± 0.1,0.915 ± 0.084,0.947 ± 0.11,0.929 ± 0.11
CHAF1B (UniProt Q13112),1.04 ± 0.021,1.07 ± 0.029,1.03 ± 0.036,1.041 ± 0.01,1.04 ± 0.024,1.04 ± 0.013,1.06 ± 0.068,1.02 ± 0.012
UniProt Q14669-2|Q14669-3,1.04 ± 0.035,1.09 ± 0.045,1.11 ± 0.013,1.18 ± 0.058,1.23 ± 0.089,1.25 ± 0.095,1.31 ± 0.13,1.31 ± 0.13
ITPR2 (UniProt Q14571),1.1 ± 0.11,1.17 ± 0.2,1.18 ± 0.19,1.31 ± 0.24,1.33 ± 0.26,1.37 ± 0.27,1.35 ± 0.3,1.3 ± 0.28
ALKBH1 (UniProt Q13686),0.892 ± 0.043,0.918 ± 0.052,0.948 ± 0.1,0.927 ± 0.071,0.964 ± 0.019,0.887 ± 0.044,1.06 ± 0.049,0.796 ± 0.047
SMC1A (UniProt Q14683),1 ± 0.041,1.04 ± 0.023,1.02 ± 0.024,1.02 ± 0.038,1.01 ± 0.05,1.03 ± 0.043,1.05 ± 0.065,1 ± 0.049
UniProt Q09028 and related entries,0.92 ± 0.12,0.959 ± 0.086,0.926 ± 0.11,0.956 ± 0.12,0.973 ± 0.11,0.99 ± 0.11,0.98 ± 0.16,0.973 ± 0.14

# Whole records as entered above. Order of values: NP40-soluble protein abundance (concentration: 0.1mM)	NP40-soluble protein abundance (concentration: 0.5mM)	NP40-soluble protein abundance (concentration: 1mM)	NP40-soluble protein abundance (concentration: 2mM)	NP40-soluble protein abundance (concentration: 4mM)	NP40-soluble protein abundance (concentration: 6mM)	NP40-soluble protein abundance (concentration: 8mM)	NP40-soluble protein abundance (concentration: 10mM)
# UniProt Q12933 and related entries in the list: 0.987 ± 0.025	1.03 ± 0.079	0.994 ± 0.045	0.982 ± 0.064	0.989 ± 0.066	1.02 ± 0.055	0.983 ± 0.06	0.996 ± 0.068
# UniProt Q14669-2|Q14669-3 in the list: 1.04 ± 0.035	1.09 ± 0.045	1.11 ± 0.013	1.18 ± 0.058	1.23 ± 0.089	1.25 ± 0.095	1.31 ± 0.13	1.31 ± 0.13

# From the supplement of paper PMC6411743
